Reference: PubChem BioAssay AID1259254 (NCATS, 2017)

Purpose: 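Gene knock-downs that lead to re-replication, shown by excess G2 DNA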 (primary screen)
System: human HCT116 colorectal cancer cells
Knock-down reagent: single siRNA against human genes
Time to read-out: 3 days
Measurement: 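Nuclei stained with Hoechst and imaged; cell-cycle phase assigned by DNA content; G2 share scaled per plate, non-targeting siRNA 0%, GMNN siRNA 100%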
Reading the numbers: G2 robust z-score and G2 cells, % of GMNN control: higher = more G2 cells, more excess DNA replication; raw share of cells in G2: higher = larger share of cells with G2 DNA content
Call rule: 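Active siRNAs have a G2 robust z of 5 or more median absolute deviations over the median, which in these data means about 38% or higher of GMNN control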
In all, the deposit lists about 59,000 reagents; shown is an unselected part. In the full data, about 1,550 (2.6%) got an active call. 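G2 share is only a proxy for re-replication; each gene was hit by three separate siRNAs, and active genes were retested.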 Raw values are not corrected between plates. The numbers tell different reagents against one gene apart. The record does not give: the amount of reagent.

no.	gene	reagent	G2 robust z-score	G2 cells, % of GMNN control	raw share of cells in G2 (%)	Call
1	ZDHHC23 (zDHHC palmitoyltransferase 23)	1	-1.07	-4.58	3.77	inactive
2	ZDHHC23 (zDHHC palmitoyltransferase 23)	2	-0.751	-2.32	3.85	inactive
3	ZDHHC23 (zDHHC palmitoyltransferase 23)	3	2.05	17.4	12	inactive
4	ENDOV (endonuclease V)	1	-0.208	1.51	3.72	inactive
5	ENDOV (endonuclease V)	2	0.498	6.47	6	inactive
6	ENDOV (endonuclease V)	3	4.38	33.8	16.1	inactive
7	TTC23 (tetratricopeptide repeat domain 23)	1	0.0945	3.63	6.16	inactive
8	TTC23 (tetratricopeptide repeat domain 23)	2	1.83	15.9	11.7	inactive
9	TTC23 (tetratricopeptide repeat domain 23)	3	0.198	4.36	3.85	inactive
10	PLA2G10 (phospholipase A2 group X)	1	1.01	10.1	8.81	inactive
11	PLA2G10 (phospholipase A2 group X)	2	0.381	5.65	6.73	inactive
12	PLA2G10 (phospholipase A2 group X)	3	-0.623	-1.42	3.89	inactive
13	ARR3 (arrestin 3)	1	-0.689	-1.88	3.29	inactive
14	ARR3 (arrestin 3)	2	-0.687	-1.86	4.41	inactive
15	ARR3 (arrestin 3)	3	-0.717	-2.08	4.01	inactive
16	SCNN1G (sodium channel epithelial 1 subunit gamma)	1	0.104	3.7	6.64	inactive
17	SCNN1G (sodium channel epithelial 1 subunit gamma)	2	-0.397	0.176	4.84	inactive
18	SCNN1G (sodium channel epithelial 1 subunit gamma)	3	-0.853	-3.03	3.19	inactive
19	DDX6 (DEAD-box helicase 6)	1	-0.129	2.06	5.7	inactive
20	DDX6 (DEAD-box helicase 6)	2	2.32	19.3	10.7	inactive
21	DDX6 (DEAD-box helicase 6)	3	2.04	17.3	11.3	inactive
22	POU4F2 (POU class 4 homeobox 2)	1	-1.08	-4.65	1.61	inactive
23	POU4F2 (POU class 4 homeobox 2)	2	-0.142	1.97	5.77	inactive
24	POU4F2 (POU class 4 homeobox 2)	3	0.517	6.6	5.5	inactive
25	BCL7A (BAF chromatin remodeling complex subunit BCL7A)	1	0.333	5.31	7.79	inactive
26	BCL7A (BAF chromatin remodeling complex subunit BCL7A)	2	-0.111	2.19	4.89	inactive
27	BCL7A (BAF chromatin remodeling complex subunit BCL7A)	3	-0.0472	2.64	4.55	inactive
28	SPAG9 (sperm associated antigen 9)	1	-1.01	-4.13	3.23	inactive
29	SPAG9 (sperm associated antigen 9)	2	-0.252	1.2	5.08	inactive
30	SPAG9 (sperm associated antigen 9)	3	3.35	26.5	14.6	inactive
31	CCN4 (cellular communication network factor 4)	1	1.31	12.2	10.1	inactive
32	CCN4 (cellular communication network factor 4)	2	-0.69	-1.89	4.03	inactive
33	CCN4 (cellular communication network factor 4)	3	0.799	8.59	8.28	inactive
34	TRAF4 (TNF receptor associated factor 4)	1	-0.605	-1.29	2.76	inactive
35	TRAF4 (TNF receptor associated factor 4)	2	2.23	18.7	12.3	inactive
36	TRAF4 (TNF receptor associated factor 4)	3	0.775	8.42	8.39	inactive
37	LILRA4 (leukocyte immunoglobulin like receptor A4)	1	2.89	23.3	15.7	inactive
38	LILRA4 (leukocyte immunoglobulin like receptor A4)	2	-0.402	0.141	4.2	inactive
39	LILRA4 (leukocyte immunoglobulin like receptor A4)	3	0.267	4.84	5.52	inactive
40	HSPA8 (heat shock protein family A (Hsp70) member 8)	1	2.13	18	10.6	inactive
41	HSPA8 (heat shock protein family A (Hsp70) member 8)	2	-0.971	-3.87	3.04	inactive
42	HSPA8 (heat shock protein family A (Hsp70) member 8)	3	1.61	14.3	8.3	inactive
43	PRRT3 (proline rich transmembrane protein 3)	1	1.29	12	8.02	inactive
44	PRRT3 (proline rich transmembrane protein 3)	2	-0.911	-3.44	1.71	inactive
45	PRRT3 (proline rich transmembrane protein 3)	3	-0.932	-3.59	2.18	inactive
46	USP31 (ubiquitin specific peptidase 31)	1	4.91	37.5	18.6	inactive
47	USP31 (ubiquitin specific peptidase 31)	2	-0.414	0.0515	4.93	inactive
48	USP31 (ubiquitin specific peptidase 31)	3	4.34	33.5	16.4	inactive
